Results: PubChem BioAssay AID252 (DTP/NCI, 2004)
The list does not hold the whole screen: it covers a few groups of compounds. Other doses and runs of a compound may be missing. T/C: endpoint of the treated group in % of that of the vehicle group. Some doses have a count of surviving animals in place of a T/C: the source files T/C as zero there, which appears to mark a toxic dose or a test without result, not a measured value. Some survivor counts are full or nearly so, which does not show that the dose was tolerated: the source hardly ever lists a survival T/C far under the control, and the zero likely stands for such cases as well. Counts of survivors are from the toxicity check (mostly the fifth day) where no day follows; animals may have died later. Schedule codes are those of the source, taken here to give the interval after Q, in days (D) or hours (H), and the number of doses after X. For survival time, this PubChem deposit counts one and a half times the control or more as active, and values a quarter to a half above the control carry no call in these data; other NCI protocols may use other cut-offs. Some entries hold several experiments; the results are listed from low to high. Some T/C values carry the count of animals alive at the toxicity check (mostly the fifth day); without a count or a note in brackets, all were alive then.

Tested on: BDF1 mice, intracerebral L1210 leukemia, survival T/C
Assay: NCI In Vivo Anticancer Drug Screen. Data for tumor model L1210 Leukemia (intracerebral) in B6D2F1 (BDF1) mice
Settings: higher T/C = longer survival
Protocol: The antitumor activity of compounds was measured in mice bearing transplantable tumors. Survival or tumor size were measured and the results are expressed as the measurement made in the treated group (T) divided by the measurement made in the vehicle treated control group (C). The tumor model used in this assay is L1210 Leukemia (intracerebral) in B6D2F1 (BDF1) mice

SMILES | T/C (T/C endpoint: mean survival time, dose: 7.5 mg/kg/injection, schedule: Q01DX015 (ip), vehicle: saline) | T/C (T/C endpoint: mean survival time, dose: 11.0 mg/kg/injection, schedule: Q01DX015 (ip), vehicle: saline) | T/C (T/C endpoint: mean survival time, dose: 17.0 mg/kg/injection, schedule: Q01DX015 (ip), vehicle: saline) | T/C (T/C endpoint: mean survival time, dose: 125.0 mg/kg/injection, schedule: Q01DX001 (ip), vehicle: carboxymethylcellulose (CMC)) | T/C (T/C endpoint: mean survival time, dose: 250.0 mg/kg/injection, schedule: Q01DX001 (ip), vehicle: carboxymethylcellulose (CMC)) | T/C (T/C endpoint: mean survival time, dose: 500.0 mg/kg/injection, schedule: Q01DX001 (ip), vehicle: carboxymethylcellulose (CMC)) | T/C (T/C endpoint: mean survival time, dose: 750.0 mg/kg/injection, schedule: Q01DX001 (ip), vehicle: carboxymethylcellulose (CMC)) | survivor count (T/C endpoint: mean survival time, dose: 1000.0 mg/kg/injection, schedule: Q01DX001 (ip), vehicle: carboxymethylcellulose (CMC)) | survivor count (T/C endpoint: mean survival time, dose: 1500.0 mg/kg/injection, schedule: Q01DX001 (ip), vehicle: carboxymethylcellulose (CMC)) | T/C (T/C endpoint: median survival time, dose: 10.0 mg/kg/injection, schedule: Q01DX009 (ip), vehicle: other) | T/C (T/C endpoint: median survival time, dose: 20.0 mg/kg/injection, schedule: Q01DX009 (ip), vehicle: other) | T/C (T/C endpoint: median survival time, dose: 40.0 mg/kg/injection, schedule: Q01DX009 (ip), vehicle: other) | T/C (T/C endpoint: median survival time, dose: 80.0 mg/kg/injection, schedule: Q01DX009 (ip), vehicle: other) | T/C (T/C endpoint: median survival time, dose: 160.0 mg/kg/injection, schedule: Q01DX009 (ip), vehicle: other) | survivor count (T/C endpoint: median survival time, dose: 320.0 mg/kg/injection, schedule: Q01DX009 (ip), vehicle: other) | survivor count (T/C endpoint: median survival time, dose: 640.0 mg/kg/injection, schedule: Q01DX009 (ip), vehicle: other)
OC(CNCCCl)C(O)C(O)C(O)CNCCCl (stereo unspecified) | 103 % of control | 110 % of control | 110 % of control |  |  |  |  |  |  |  |  |  |  |  |  | 
NC(=O)c1[nH]cnc1/N=N\N(CCCl)CCCl |  |  |  | 108 % of control | 115 % of control | 102 and 122 % of control | 115 % of control | 10 of 10 | 6 of 10 | 98 % of control | 120 % of control | 118 % of control | 105 % of control [9 of 10 alive] | 109 % of control | 10 of 10 | 8 of 10
